# Experiments:
# [1] = system: EphB4+ A375SM tumor-bearing nude mice; format: in vivo, mouse; conditions: metformin 48 mg/kg iv co-injection vs radiotracer only, 4 h
# [2] = system: nude mice bearing SSTR2-expressing HT1080 tumors; format: in vivo, mouse; conditions: metformin 48 mg/kg iv co-injection vs radiotracer only, 24 h; tumor p=0.08
smiles,measurement,setting,value
"CN(C)C(=N)NC(=N)N.Cl [metformin, 1,1-Dimethylbiguanide hydrochloride]",Effect on liver uptake of 68Ga-NOTA-c(TNYL-RAW),[1],No difference
same,Differences in radiotracer uptake in all other major organs and in the tumor,[2],not statistically significant

# From publication PMC6727202 (Molecular pharmaceutics, 2019)
